# Measured values: PubChem BioAssay
# This is one part of the list. Measured potencies and affinities stand elsewhere. Entries without a call are filed as inconclusive in the source.
# Experiment: enhancers of polyQ-expanded androgen receptor AR112-GFP degradation, cell-based, GFP fluorescence (AID 1607)
# Conditions: cells expressing AR112-GFP, stronger effect = lower value
row,Structure (SMILES),normalized GFP signal
1,COc1ccc(/C=C/c2cc(O)cc(O[C@@H]3O[C@H](CO)[C@@H](O)[C@H](O)[C@H]3O)c2)cc1O,1.07
2,CC(=O)[C@H]1CCC2C3CCC4=CC(=O)CC[C@]4(C)C3CC[C@@]21C (stereo partly drawn),1.08
3,CN(C)CCCN1c2ccccc2Sc2ccc(Cl)cc21,0.681
4,CC1=C(/C=C/C(C)=C/C=C/C(C)=C/C=C/C=C(C)/C=C/C=C(C)/C=C/C2=C(C)CCCC2(C)C)C(C)(C)CCC1,0.966
5,COC(=O)[C@H]1[C@H]2C[C@H]3c4[nH]c5ccccc5c4CCN3C[C@H]2CC[C@@H]1O,1.05
6,CN(C)CC/C=C1/c2ccccc2COc2ccccc21,0.837
7,C[C@H](CCC(=O)O)[C@H]1CCC2C3C(CC[C@@]21C)[C@@]1(C)CC[C@@H](O)C[C@H]1C[C@@H]3O (stereo partly drawn),1.13
8,COC(=O)C(N)CS (stereo not drawn),0.911
9,Nc1ccn(C2O[C@H](CO)[C@@H](O)[C@H]2O)c(=O)n1 (stereo partly drawn),0.984
10,NC(=O)c1cccc(N)c1,1.09
11,NC(=O)c1ccc([N+](=O)[O-])cc1Cl,1.03
12,NC(=O)NC(=O)Cc1ccccc1,0.987
13,CC1(C)S[C@@H]2[C@H](NC(=O)COc3ccccc3)C(=O)N2[C@H]1C(=O)O,1
14,O=C1NC(=O)C(c2ccccc2)(c2ccccc2)N1,0.918
15,Cc1noc(NS(=O)(=O)c2ccc(N)cc2)c1C,1.09
16,c1ccc(CC2=NCCN2)cc1,0.981
17,C[C@@H]1CC2C3CCC4=CC(=O)C=C[C@]4(C)[C@@]3(F)[C@@H](O)C[C@]2(C)[C@@]1(O)C(=O)CO (stereo partly drawn),1.26
18,NCC1CCC(N)C(OC2C(N)CC(N)C(OC3OC(CO)C(O)C(N)C3O)C2O)O1 (stereo not drawn),0.999

# Reprinted at random: two compounds from above, in no set order.
row,Structure (SMILES),normalized GFP signal
4,CC1=C(/C=C/C(C)=C/C=C/C(C)=C/C=C/C=C(C)/C=C/C=C(C)/C=C/C2=C(C)CCCC2(C)C)C(C)(C)CCC1,0.966
16,c1ccc(CC2=NCCN2)cc1,0.981
